Reference: article PMC11757159
No constants are given. Whether binding was seen depends on the method and setting. Binding seen in cells or lysates may run through a third protein. Some binding calls cover weakened binding; strength is not graded here.

Protein sequences, listed by entry. Tags and fused reporters are not part of them.
UniProt Q5EE01: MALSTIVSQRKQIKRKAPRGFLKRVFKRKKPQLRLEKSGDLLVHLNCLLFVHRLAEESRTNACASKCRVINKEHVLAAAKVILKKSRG
UniProt Q92674: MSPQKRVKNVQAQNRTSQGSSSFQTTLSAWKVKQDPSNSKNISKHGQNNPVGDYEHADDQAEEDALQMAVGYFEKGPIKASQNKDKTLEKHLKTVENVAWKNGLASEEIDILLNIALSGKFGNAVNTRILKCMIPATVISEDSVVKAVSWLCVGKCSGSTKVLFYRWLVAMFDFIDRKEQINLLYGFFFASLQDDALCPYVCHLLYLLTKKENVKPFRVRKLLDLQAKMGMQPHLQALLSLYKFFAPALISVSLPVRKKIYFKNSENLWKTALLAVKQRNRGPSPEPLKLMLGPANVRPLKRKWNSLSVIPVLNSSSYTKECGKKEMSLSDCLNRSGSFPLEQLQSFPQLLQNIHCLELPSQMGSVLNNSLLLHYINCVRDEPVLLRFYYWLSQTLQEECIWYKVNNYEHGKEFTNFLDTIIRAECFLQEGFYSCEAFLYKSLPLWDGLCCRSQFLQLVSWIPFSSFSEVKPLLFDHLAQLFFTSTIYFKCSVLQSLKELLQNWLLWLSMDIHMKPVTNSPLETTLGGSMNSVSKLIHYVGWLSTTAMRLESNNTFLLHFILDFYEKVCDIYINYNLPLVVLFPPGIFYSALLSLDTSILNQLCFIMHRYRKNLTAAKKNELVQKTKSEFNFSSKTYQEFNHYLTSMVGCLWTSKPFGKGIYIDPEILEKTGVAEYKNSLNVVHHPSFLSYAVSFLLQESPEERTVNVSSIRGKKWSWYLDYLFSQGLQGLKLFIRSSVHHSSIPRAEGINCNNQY

B1: CENP-B (protein, UniProt P07199 1-599)
chain: MGPKRRQLTFREKSRIIQEVEENPDLRKGEIARRFNIPPSTLSTILKNKRAILASERKYGVASTCRKTNKLSPYDKLEGLLIAWFQQIRAAGLPVKGIILKEKALRIAEELGMDDFTASNGWLDRFRRRHGVVSCSGVARARARNAAPRTPAAPASPAAVPSEGSGGSTTGWRAREEQPPSVAEGYASQDVFSATETSLWYDFLPDQAAGLCGGDGRPRQATQRLSVLLCANADGSEKLPPLVAGKSAKPRAGQAGLPCDYTANSKGGVTTQALAKYLKALDTRMAAESRRVLLLAGRLAAQSLDTSGLRHVQLAFFPPGTVHPLERGVVQQVKGHYRQAMLLKAMAALEGQDPSGLQLGLTEALHFVAAAWQAVEPSDIAACFREAGFGGGPNATITTSLKSEGEEEEEEEEEEEEEEGEGEEEEEEGEEEEEEGGEGEELGEEEEVEEEGDVDSDEEEEEDEESSSEGLEAEDWAQGVVEAGGSFGAYGAQEEAQCPTLHFLEGGEDSDSDSEEEDDEEEDDEDEDDDDDEEDGDEVPVPSFGEAMAYFAMVKRYLTSFPIDDRVQSHILHLEHDLVHVTRKNHARQAGVRGLGHQS

target: CENP-C (human (endogenous in HeLa)) (UniProt Q03188); assay: co-IP; first native ChIP (no fixation) with anti-CENP-C antibody (PD030, asynchronous HeLa; EPR15939, HeLa synchronised to S, G2, M, G1; also transfected HeLa) on chromatin extracted in 0.5X PBS, 0.1 mM EGTA after 6-min MNase digestion; Protein G Sepharose, washed with 0.5X PBS; Western blot

binding, binds:
CENP-W (from UniProt Q5EE01 1-88), CENP-T (from UniProt Q96BT3 1-561), CENP-I (from UniProt Q92674 1-756), B1
